Measured values reported in US4239744A, “Radioreceptor assay for benzodiazepines in plasma and other biological specimens” (United States of America, priority 1978, dated 1980).
Values joined by “and” are separate entries in the source; they are usually repeats but may differ in a detail not shown here. Identical values can stand only once.

Experiment: Plasma levels in baboons given diazepam, determined by gas-liquid chromatography (GLC/EC)
Conditions: plasma samples No. 1-11 from baboons given 2-4 mg/kg diazepam; N-demethyldiazepam converted by standard curve and added to diazepam

CN1C(=O)CN=C(c2ccccc2)c2cc(Cl)ccc21 [Diazepam, diazepam]
GLC/EC Assay "Diazepam Equivalents, Calculated": 624 ng/mL and 800 ng/mL
